Assay [1] deals with Flag-tagged EloR (Streptococcus pneumoniae R6). Nature of the assay: co-IP.
Assay [2] concerns the target EloR (Elongasome Regulating protein), BACTH fusion (Streptococcus pneumoniae R6). Nature of the assay: two-hybrid.

No constants are given. Whether binding was seen depends on the method and setting. For some assays here: Binding seen in cells or lysates may run through a third protein. Some binding calls cover weakened binding; strength is not graded here. For some assays here: Sequences can lack the tags named with a protein.

Regarding “GFP-tagged HlpA (from UniProt A0ACD7PRL6 1-91)”, in assay [1], the binding result is given as “no binding”.

B1: RodZ, BACTH fusion (protein, UniProt Q8DMX7 1-276)
chain: MTSMRKKTIGEVLRLARINQGLSLDELQKKTEIQLDMLEAMEADDFDQLPSPFYTRSFLKKYAWAVELDDQIVLDAYDSGSMITYEEVDVDEDELTGRRRSSKKKKKKTSFLPLFYFILFALSILIFVTYYVWNYIQTQPEEPSLSNYSVVQSTSSTSSVPHSSSSSSSSIESAISVSGEGNHVEIAYKTSKETVKLQLAVSDVTSWVSVSESELEGGVTLSPKKKSAEATVATKSPVTITLGVVKGVDLTVDNQTVDLSKLTAQTGQITVTFTKN
In the case of B1, the binding entry in assay [2] was “binds”.

The record behind these values is article doi:10.1101/2020.12.18.423453.
